Experimental data: the supplement of paper PMC10849652
The list shows a part of the results.

Sequences of proteins named here, by UniProt entry; tags and fusion partners are left off. A change or cut given only in a name is not applied to a line headed by its entry.
UniProt Q9H8V3: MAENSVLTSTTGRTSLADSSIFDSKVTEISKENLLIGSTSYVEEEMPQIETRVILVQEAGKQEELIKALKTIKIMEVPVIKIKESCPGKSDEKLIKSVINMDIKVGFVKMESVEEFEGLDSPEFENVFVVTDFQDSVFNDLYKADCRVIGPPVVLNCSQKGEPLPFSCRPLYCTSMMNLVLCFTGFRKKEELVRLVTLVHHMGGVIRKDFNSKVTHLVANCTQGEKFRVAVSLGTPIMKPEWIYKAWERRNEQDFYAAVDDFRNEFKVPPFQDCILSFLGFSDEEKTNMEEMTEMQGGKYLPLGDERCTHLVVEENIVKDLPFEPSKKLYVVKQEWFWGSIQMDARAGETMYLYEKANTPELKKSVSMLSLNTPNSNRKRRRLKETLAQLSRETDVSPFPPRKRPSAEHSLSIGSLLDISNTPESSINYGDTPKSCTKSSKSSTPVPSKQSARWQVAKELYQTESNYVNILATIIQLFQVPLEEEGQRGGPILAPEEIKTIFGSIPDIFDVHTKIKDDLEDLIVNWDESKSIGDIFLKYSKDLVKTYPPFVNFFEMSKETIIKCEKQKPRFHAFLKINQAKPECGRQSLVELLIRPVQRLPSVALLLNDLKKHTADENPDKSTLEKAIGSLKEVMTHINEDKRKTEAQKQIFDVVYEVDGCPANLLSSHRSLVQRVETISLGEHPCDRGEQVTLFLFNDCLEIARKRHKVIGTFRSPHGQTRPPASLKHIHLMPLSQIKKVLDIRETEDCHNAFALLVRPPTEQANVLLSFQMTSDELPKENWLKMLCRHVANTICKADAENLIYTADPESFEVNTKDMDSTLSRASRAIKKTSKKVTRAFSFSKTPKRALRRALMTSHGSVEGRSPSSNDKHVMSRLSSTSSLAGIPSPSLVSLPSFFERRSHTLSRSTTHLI
UniProt Q8N5C7: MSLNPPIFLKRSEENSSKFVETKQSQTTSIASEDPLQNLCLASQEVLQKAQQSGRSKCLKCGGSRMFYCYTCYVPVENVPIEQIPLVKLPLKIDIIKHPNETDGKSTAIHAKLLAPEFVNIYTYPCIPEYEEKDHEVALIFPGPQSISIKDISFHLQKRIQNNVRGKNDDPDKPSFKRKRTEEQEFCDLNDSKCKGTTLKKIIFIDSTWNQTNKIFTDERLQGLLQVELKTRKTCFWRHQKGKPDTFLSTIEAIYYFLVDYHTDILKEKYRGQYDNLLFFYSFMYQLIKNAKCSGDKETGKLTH
UniProt Q6ZPD9: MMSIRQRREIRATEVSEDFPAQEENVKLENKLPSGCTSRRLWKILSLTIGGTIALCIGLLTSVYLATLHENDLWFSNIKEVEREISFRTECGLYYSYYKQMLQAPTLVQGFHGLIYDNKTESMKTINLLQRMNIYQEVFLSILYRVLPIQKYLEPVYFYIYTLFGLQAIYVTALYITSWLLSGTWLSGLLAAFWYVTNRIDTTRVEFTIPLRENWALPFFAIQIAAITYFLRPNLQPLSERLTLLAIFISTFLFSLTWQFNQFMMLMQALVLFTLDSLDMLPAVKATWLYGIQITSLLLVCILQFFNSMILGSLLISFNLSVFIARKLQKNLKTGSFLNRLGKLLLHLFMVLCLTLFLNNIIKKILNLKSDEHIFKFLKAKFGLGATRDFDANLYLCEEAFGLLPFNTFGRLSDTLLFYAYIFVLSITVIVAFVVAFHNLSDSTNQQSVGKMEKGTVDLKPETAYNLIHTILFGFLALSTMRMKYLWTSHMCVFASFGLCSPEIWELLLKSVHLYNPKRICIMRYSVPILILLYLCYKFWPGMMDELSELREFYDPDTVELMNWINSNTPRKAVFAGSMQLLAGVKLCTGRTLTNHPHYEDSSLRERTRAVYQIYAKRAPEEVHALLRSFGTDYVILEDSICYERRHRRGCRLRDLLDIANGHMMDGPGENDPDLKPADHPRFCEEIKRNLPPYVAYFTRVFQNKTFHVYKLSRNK
UniProt Q96FN9: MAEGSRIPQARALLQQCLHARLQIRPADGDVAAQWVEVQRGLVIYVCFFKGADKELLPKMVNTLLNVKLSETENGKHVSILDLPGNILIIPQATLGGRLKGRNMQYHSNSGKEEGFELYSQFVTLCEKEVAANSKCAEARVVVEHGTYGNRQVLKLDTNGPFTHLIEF
UniProt Q9NRW4: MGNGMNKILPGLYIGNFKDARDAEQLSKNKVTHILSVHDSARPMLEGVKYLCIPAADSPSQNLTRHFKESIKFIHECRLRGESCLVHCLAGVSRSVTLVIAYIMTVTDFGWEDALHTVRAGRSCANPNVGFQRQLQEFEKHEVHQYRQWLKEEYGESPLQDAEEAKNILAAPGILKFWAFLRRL
UniProt Q8NCM8: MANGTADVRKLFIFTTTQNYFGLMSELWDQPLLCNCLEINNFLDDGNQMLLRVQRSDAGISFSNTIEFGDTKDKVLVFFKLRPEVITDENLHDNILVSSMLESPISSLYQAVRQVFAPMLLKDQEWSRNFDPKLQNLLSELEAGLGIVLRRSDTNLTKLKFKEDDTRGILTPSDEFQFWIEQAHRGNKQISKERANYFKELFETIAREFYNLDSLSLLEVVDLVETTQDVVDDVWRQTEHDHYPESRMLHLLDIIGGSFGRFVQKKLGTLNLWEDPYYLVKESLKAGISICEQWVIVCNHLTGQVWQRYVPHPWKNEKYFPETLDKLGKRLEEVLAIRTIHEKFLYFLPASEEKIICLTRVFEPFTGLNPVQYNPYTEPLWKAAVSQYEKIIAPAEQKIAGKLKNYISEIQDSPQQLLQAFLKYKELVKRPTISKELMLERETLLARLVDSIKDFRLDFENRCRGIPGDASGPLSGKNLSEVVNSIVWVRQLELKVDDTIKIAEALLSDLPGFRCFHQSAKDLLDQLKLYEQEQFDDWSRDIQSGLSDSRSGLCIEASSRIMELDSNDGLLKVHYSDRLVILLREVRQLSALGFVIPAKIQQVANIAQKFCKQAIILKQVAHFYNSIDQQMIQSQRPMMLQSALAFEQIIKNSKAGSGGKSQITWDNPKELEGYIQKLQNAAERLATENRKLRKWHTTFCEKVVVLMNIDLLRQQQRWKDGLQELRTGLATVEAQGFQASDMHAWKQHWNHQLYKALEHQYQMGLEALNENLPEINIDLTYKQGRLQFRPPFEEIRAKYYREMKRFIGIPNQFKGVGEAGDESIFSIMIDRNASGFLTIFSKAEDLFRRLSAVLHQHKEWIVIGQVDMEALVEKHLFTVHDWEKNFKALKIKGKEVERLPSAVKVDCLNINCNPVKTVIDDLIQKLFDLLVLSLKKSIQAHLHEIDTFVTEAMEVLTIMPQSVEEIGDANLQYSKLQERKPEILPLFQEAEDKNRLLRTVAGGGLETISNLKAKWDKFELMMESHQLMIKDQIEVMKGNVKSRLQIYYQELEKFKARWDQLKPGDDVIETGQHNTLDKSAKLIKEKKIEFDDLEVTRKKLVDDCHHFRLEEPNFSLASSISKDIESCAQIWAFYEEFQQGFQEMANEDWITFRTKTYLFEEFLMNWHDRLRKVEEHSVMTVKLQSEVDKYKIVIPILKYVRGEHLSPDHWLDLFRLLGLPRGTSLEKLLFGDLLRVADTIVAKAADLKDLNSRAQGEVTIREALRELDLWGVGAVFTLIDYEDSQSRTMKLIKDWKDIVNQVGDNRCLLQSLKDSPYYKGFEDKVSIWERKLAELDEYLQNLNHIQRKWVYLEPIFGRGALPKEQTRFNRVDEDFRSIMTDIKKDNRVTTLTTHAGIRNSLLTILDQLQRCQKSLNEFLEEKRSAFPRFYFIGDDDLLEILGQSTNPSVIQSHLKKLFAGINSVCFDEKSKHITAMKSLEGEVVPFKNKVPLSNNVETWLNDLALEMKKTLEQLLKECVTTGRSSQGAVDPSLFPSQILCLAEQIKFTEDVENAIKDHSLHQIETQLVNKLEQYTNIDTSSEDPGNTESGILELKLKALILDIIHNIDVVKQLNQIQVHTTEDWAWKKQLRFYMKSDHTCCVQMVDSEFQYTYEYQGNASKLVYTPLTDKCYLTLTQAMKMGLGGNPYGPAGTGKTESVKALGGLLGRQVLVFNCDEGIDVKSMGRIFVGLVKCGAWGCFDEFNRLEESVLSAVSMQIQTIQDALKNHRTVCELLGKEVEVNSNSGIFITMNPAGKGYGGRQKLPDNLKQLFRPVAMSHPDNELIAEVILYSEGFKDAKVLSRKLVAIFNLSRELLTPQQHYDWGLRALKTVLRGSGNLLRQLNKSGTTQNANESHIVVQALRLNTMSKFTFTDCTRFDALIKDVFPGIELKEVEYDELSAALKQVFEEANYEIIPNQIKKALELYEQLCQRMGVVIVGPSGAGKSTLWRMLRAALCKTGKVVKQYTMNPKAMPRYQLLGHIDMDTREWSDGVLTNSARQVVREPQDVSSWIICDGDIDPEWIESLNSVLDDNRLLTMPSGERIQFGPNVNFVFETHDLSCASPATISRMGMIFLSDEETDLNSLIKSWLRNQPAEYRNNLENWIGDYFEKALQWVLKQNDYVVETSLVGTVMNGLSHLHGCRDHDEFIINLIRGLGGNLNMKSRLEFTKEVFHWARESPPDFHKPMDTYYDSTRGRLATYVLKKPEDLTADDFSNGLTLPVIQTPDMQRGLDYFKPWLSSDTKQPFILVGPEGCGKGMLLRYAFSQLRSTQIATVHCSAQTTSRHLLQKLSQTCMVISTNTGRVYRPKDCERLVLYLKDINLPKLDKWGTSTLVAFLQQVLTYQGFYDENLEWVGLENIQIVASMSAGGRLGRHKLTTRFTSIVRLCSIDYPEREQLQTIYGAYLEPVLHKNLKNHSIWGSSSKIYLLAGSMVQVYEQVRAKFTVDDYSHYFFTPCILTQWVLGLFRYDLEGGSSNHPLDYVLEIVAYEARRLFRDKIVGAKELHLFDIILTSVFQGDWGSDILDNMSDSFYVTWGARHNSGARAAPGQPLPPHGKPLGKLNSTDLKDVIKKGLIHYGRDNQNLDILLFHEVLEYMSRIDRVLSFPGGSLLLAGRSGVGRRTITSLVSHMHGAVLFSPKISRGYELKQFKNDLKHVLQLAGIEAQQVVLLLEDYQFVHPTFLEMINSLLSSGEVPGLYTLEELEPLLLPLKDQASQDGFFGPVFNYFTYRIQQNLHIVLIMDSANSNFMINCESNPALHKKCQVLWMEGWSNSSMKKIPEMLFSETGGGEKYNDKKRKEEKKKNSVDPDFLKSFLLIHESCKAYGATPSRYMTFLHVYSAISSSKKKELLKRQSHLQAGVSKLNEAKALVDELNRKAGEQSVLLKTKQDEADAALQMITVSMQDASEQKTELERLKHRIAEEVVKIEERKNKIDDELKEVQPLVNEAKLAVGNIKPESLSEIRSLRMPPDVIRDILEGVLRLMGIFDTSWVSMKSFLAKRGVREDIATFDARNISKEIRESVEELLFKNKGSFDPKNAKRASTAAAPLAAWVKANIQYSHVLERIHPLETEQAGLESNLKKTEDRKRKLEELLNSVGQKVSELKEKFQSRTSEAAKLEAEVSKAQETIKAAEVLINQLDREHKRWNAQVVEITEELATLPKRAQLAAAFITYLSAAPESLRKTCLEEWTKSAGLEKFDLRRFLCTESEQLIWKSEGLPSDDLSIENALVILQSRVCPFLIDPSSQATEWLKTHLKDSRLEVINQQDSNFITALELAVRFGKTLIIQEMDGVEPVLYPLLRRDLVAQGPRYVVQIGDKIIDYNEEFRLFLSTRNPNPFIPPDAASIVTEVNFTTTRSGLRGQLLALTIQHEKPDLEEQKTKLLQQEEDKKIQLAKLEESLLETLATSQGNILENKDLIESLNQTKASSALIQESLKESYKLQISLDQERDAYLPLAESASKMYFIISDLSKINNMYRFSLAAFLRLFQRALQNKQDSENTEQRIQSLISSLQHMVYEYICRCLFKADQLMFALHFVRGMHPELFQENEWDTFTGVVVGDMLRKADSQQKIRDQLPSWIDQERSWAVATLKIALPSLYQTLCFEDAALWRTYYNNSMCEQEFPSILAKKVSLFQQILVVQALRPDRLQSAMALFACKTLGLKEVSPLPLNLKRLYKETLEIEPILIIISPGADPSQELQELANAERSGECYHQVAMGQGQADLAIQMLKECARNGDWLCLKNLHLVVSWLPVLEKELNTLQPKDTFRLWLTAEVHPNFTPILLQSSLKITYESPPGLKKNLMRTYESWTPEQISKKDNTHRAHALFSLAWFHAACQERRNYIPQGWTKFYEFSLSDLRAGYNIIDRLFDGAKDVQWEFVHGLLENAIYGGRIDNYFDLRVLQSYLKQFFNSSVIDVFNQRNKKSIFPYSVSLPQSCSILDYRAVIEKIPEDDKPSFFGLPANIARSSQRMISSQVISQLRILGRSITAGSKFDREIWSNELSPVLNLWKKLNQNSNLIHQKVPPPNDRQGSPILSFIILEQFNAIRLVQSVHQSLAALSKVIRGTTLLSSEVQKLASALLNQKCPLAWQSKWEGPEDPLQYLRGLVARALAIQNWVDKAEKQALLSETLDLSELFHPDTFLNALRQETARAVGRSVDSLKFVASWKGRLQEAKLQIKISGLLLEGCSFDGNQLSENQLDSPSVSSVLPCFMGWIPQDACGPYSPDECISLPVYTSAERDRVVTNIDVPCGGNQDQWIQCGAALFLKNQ

What was measured:
Experiment in all cases: log2 fold change, soluble protein after heating vs DMSO (PISA); higher = thermal stabilisation; K562 lysate, 10 uM; active = over 0.2 and 3.5 SD of the protein, either way, in both replicates (recomputed)
vemurafenib = compound: CCCS(=O)(=O)Nc1ccc(F)c(C(=O)c2c[nH]c3ncc(-c4ccc(Cl)cc4)cc23)c1F [vemurafenib]
Procedure, shortened: (§1)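 Log-two fold change in thermal stability relative to solvent controls is reported from duplicates. For each sample, crude K562 extract from dounce-homogenised pellets in PBS pH 7.4 with 1 mM MgCl2, at 1 mg/mL protein, was treated with 10 μM compound for 30 min. Aliquots heated for 3 min across 48°C-58°C were pooled, brought to 0.5% NP-40 at 4°C and cleared at 21,000xg for 90 min. The supernatant was quantified by TMTpro 16plex LC-MS/MS with channel sums equalised.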

[1] = compound: CCCS(=O)(=O)Nc1ccc(F)c(C(=O)c2c[nH]c3ncc(Cl)cc23)c1F
Procedure, shortened: as §1

barasertib = compound: CCN(CCCOc1ccc2c(Nc3cc(CC(=O)Nc4cccc(F)c4)[nH]n3)ncnc2c1)CCOP(=O)(O)O [barasertib]
Procedure, shortened: as §1

[2] = compound: CC[C@@H]1C(=O)N(C)c2cnc(Nc3ccc(C(=O)NC4CCN(C)CC4)cc3OC)nc2N1C1CCCC1
Procedure, shortened: as §1

volasertib = compound: CC[C@@H]1C(=O)N(C)c2cnc(Nc3ccc(C(=O)N[C@H]4CC[C@H](N5CCN(CC6CC6)CC5)CC4)cc3OC)nc2N1C(C)C [volasertib]
Procedure, shortened: as §1

[3] = compound: CCn1c(C(=O)N(C2CC2)C2CC2)cc2c3c(ncn3C)c(Nc3cc(C)n(C)n3)nc21
Procedure, shortened: as §1

[4] = compound: CCn1cc(-c2ccnc3[nH]c(-c4cccc(CN(C)C)c4)cc23)c(-c2ccc(NC(=O)N(C)C)cc2)n1
Procedure, shortened: as §1

[5] = compound: CN1CCC(CNc2ccc3ncc(-c4cccc(OC(F)(F)F)c4)n3n2)CC1
Procedure, shortened: as §1

saracatinib = compound: CN1CCN(CCOc2cc(OC3CCOCC3)c3c(Nc4c(Cl)ccc5c4OCO5)ncnc3c2)CC1 [saracatinib]
Procedure, shortened: as §1

sotrastaurin = compound: CN1CCN(c2nc(C3=C(c4c[nH]c5ccccc45)C(=O)NC3=O)c3ccccc3n2)CC1 [sotrastaurin]
Procedure, shortened: as §1

alvocidib = compound: CN1CC[C@H](c2c(O)cc(O)c3c(=O)cc(-c4ccccc4Cl)oc23)[C@H](O)C1 [alvocidib]
Procedure, shortened: as §1

Tubastatin A = compound: CN1CCc2c(c3ccccc3n2Cc2ccc(C(=O)NO)cc2)C1 [Tubastatin A]
Procedure, shortened: as §1

[6] = compound: CNC(=O)C1=CC=CC=C1NC2=NC(=NC=C2Cl)NC3=C(C=C(C=C3)N4CCOCC4)OC
Procedure, shortened: as §1

defactinib = compound: CNC(=O)c1ccc(Nc2ncc(C(F)(F)F)c(NCc3nccnc3N(C)S(C)(=O)=O)n2)cc1 [defactinib]
Procedure, shortened: as §1

[7] = compound: CNc1nc(-c2ccc3c(N)n[nH]c3c2)cc(N2C[C@@H](C(=O)NC3CCCCC3)CC[C@H]2C)n1
Procedure, shortened: as §1

encorafenib = compound: COC(=O)N[C@@H](C)CNc1nccc(-c2cn(C(C)C)nc2-c2cc(Cl)cc(NS(C)(=O)=O)c2F)n1 [encorafenib]
Procedure, shortened: as §1

[8] = compound: COC(=O)[C@H](CCSC)NC(=O)C1=C(C=C(C=C1)NC[C@H](CS)N)C2=CC=CC=C2
Procedure, shortened: as §1

alisertib = compound: COc1cc(Nc2ncc3c(n2)-c2ccc(Cl)cc2C(c2c(F)cccc2OC)=NC3)ccc1C(=O)O [alisertib]
Procedure, shortened: as §1

[9] = compound: COc1cc2nc(-c3cc(F)ccc3O)nc(N[C@@H]3CNC[C@H]3C(C)(C)O)c2cc1OC
Procedure, shortened: as §1

gefitinib = compound: COc1cc2ncnc(Nc3ccc(F)c(Cl)c3)c2cc1OCCCN1CCOCC1 [gefitinib]
Procedure, shortened: as §1

Measured: log2 fold change

ECE1 (UniProt P42892)
inactive: vemurafenib 0.027 | [1] 0.002 | barasertib 0.031 | [2] 0.08 | volasertib 0.022 | [3] 0.009 | [4] 0.006 | [5] 0.038 | saracatinib -0.005 | sotrastaurin 0.024 | alvocidib -0.045 | Tubastatin A 0.067 | [6] 0.019 | defactinib -0.035 | [7] -0.025 | encorafenib 0.021 | [8] -0.032 | alisertib -0.053 | [9] 0.006 | gefitinib 0.001

ECT2 (UniProt Q9H8V3)
inactive: vemurafenib -0.003 | [1] 0.03 | barasertib -0.01 | [2] 0.068 | volasertib -0.192 | [3] 0.07 | [4] -0.088 | [5] 0.167 | saracatinib 0.018 | sotrastaurin -0.06 | alvocidib 0.016 | Tubastatin A 0.028 | [6] 0.081 | defactinib -0.073 | [7] 0.149 | encorafenib 0.074 | [8] 0.032 | alisertib 0.013 | [9] -0.05 | gefitinib 0.018

DUS1L (UniProt Q6P1R4)
inactive: vemurafenib -0.049 | [1] -0.019 | barasertib 0.02 | [2] -0.053 | volasertib 0.011 | [3] -0.002 | [4] 0.137 | [5] 0.092 | saracatinib -0.067 | sotrastaurin 0.046 | alvocidib -0.018 | Tubastatin A -0.149 | [6] -0.075 | defactinib -0.019 | [7] 0.007 | encorafenib -0.01 | [8] 0.04 | alisertib -0.034 | [9] 0.046 | gefitinib -0.02

EDEM2 (UniProt Q9BV94)
inactive: vemurafenib 0.021 | [1] 0.03 | [2] 0.061 | volasertib 0.05 | [3] -0.036 | [4] -0.06 | [5] 0.013 | saracatinib 0.018 | sotrastaurin -0.016 | alvocidib -0.004 | Tubastatin A -0.044 | [6] -0.019 | defactinib 0.008 | [7] -0.005 | encorafenib 0.027 | [8] 0.017 | alisertib 0.07 | [9] -0.085 | gefitinib -0.065

DTWD1 (UniProt Q8N5C7)
inactive: vemurafenib 0.028 | [1] 0.018 | barasertib -0.005 | [2] 0.024 | volasertib -0.036 | [3] 0.016 | [4] -0.026 | [5] -0.032 | saracatinib -0.033 | sotrastaurin 0.019 | alvocidib 0.041 | Tubastatin A -0.028 | [6] 0.011 | defactinib -0.032 | [7] 0.01 | encorafenib -0.044 | [8] -0.046 | alisertib 0 | [9] 0.005 | gefitinib -0.006

DYSF isoform 13 (UniProt O75923)
inactive: vemurafenib 0.01 | [1] 0.019 | barasertib 0.06 | [2] 0.04 | volasertib -0.091 | [3] -0.096 | [4] -0.009 | [5] 0.037 | saracatinib 0.011 | sotrastaurin -0.008 | alvocidib -0.035 | Tubastatin A 0.12 | [6] 0 | defactinib -0.133 | [7] 0.184 | encorafenib -0.089 | [8] 0.013 | [9] 0.127

DPH5 isoform 5 (UniProt Q9H2P9)
inactive: vemurafenib 0.144 | [1] 0.016 | barasertib -0.05 | [2] 0.16 | volasertib 0.273 | [3] -0.011 | [4] 0.182 | [5] 0.033 | saracatinib -0.029 | sotrastaurin 0.049 | alvocidib -0.012 | Tubastatin A 0.02 | [6] 0.119 | defactinib -0.002 | [7] 0.02 | encorafenib -0.044 | [8] -0.024 | alisertib -0.045 | [9] -0.018 | gefitinib 0.04

Quoted at random: 2 records from the list.
DUS1L (UniProt Q6P1R4)
inactive: vemurafenib -0.049 | [1] -0.019 | barasertib 0.02 | [2] -0.053 | volasertib 0.011 | [3] -0.002 | [4] 0.137 | [5] 0.092 | saracatinib -0.067 | sotrastaurin 0.046 | alvocidib -0.018 | Tubastatin A -0.149 | [6] -0.075 | defactinib -0.019 | [7] 0.007 | encorafenib -0.01 | [8] 0.04 | alisertib -0.034 | [9] 0.046 | gefitinib -0.02

DPH5 isoform 5 (UniProt Q9H2P9)
inactive: vemurafenib 0.144 | [1] 0.016 | barasertib -0.05 | [2] 0.16 | volasertib 0.273 | [3] -0.011 | [4] 0.182 | [5] 0.033 | saracatinib -0.029 | sotrastaurin 0.049 | alvocidib -0.012 | Tubastatin A 0.02 | [6] 0.119 | defactinib -0.002 | [7] 0.02 | encorafenib -0.044 | [8] -0.024 | alisertib -0.045 | [9] -0.018 | gefitinib 0.04

(continued)

DPY19L3 (UniProt Q6ZPD9)
inactive: vemurafenib 0.258 | [1] 0.05 | barasertib 0.071 | [2] 0.043 | volasertib -0.007 | sotrastaurin 0.051 | [6] -0.105 | defactinib -0.039 | encorafenib 0 | [8] -0.096 | [9] -0.042

DYNC1I1 (UniProt O14576)
inactive: vemurafenib -0.184 | [1] 0.124 | [2] 0.15 | volasertib -0.025 | [4] 0.145 | [5] -0.035 | saracatinib -0.017 | alvocidib 0.004 | [6] -0.03 | defactinib 0.062 | [7] 0.029 | encorafenib 0.05 | [8] -0.06 | [9] -0.03

DTD2 (UniProt Q96FN9)
inactive: vemurafenib -0.161 | [1] -0.134 | barasertib 0.184 | [2] 0.031 | volasertib 0.044 | [3] 0.055 | [4] -0.01 | [5] 0.076 | saracatinib -0.055 | sotrastaurin 0.072 | alvocidib -0.088 | Tubastatin A -0.112 | [6] 0.075 | defactinib -0.086 | [7] 0.092 | encorafenib -0.115 | [8] -0.146 | [9] 0.218

DYNC1I2 isoform 2 (UniProt Q13409)
inactive: vemurafenib -0.073 | [1] 0.042 | barasertib -0.123 | [2] 0.132 | volasertib -0.039 | [3] 0.035 | [4] -0.022 | [5] 0.082 | saracatinib -0.077 | sotrastaurin 0.006 | alvocidib 0.065 | Tubastatin A 0.002 | [6] -0.02 | defactinib 0.001 | [7] -0.039 | encorafenib 0.011 | [8] 0.056 | [9] 0.096

ECM1 isoform 4 (UniProt Q16610)
inactive: vemurafenib 0.005 | [1] 0.003 | barasertib -0.054 | [2] 0.121 | volasertib -0.014 | [3] -0.037 | [4] 0.018 | [5] 0.074 | saracatinib 0.035 | sotrastaurin 0.024 | alvocidib -0.012 | Tubastatin A 0.039 | [6] 0.019 | defactinib -0.033 | [7] 0.003 | encorafenib 0.004 | [8] -0.037 | alisertib -0.014 | [9] -0.02 | gefitinib 0.047

DSC2 (UniProt Q02487)
inactive: vemurafenib -0.018 | barasertib 0.045 | [2] 0.082 | [3] -0.013 | [4] -0.049 | [5] 0.067 | saracatinib 0.197 | sotrastaurin 0.28 | alvocidib -0.014 | Tubastatin A 0.132 | [6] -0.086 | defactinib 0.094 | [7] 0.048 | encorafenib -0.216 | [8] 0.188

DYM (UniProt Q7RTS9)
inactive: vemurafenib -0.126 | [1] 0.034 | barasertib 0.099 | [2] 0.051 | volasertib -0.013 | [3] 0.079 | [4] 0.033 | [5] -0.08 | saracatinib 0.136 | sotrastaurin -0.009 | alvocidib 0.007 | Tubastatin A -0.005 | [6] 0.046 | defactinib 0.118 | [7] 0.021 | encorafenib 0.237 | [8] 0.001 | alisertib 0.056 | [9] 0.038 | gefitinib 0.005

EIF2A (UniProt Q9BY44)
inactive: vemurafenib 0.002 | [1] 0.015 | barasertib -0.028 | [2] 0.006 | volasertib -0.014 | [3] -0.01 | [4] -0.077 | [5] 0.015 | saracatinib -0.001 | sotrastaurin -0.031 | alvocidib -0.016 | Tubastatin A 0.04 | [6] -0.002 | defactinib -0.014 | [7] 0.023 | encorafenib -0.009 | [8] -0.012 | alisertib -0.001 | [9] 0.007 | gefitinib -0.028

DUSP22 isoform 2 (UniProt Q9NRW4)
inactive: vemurafenib 0.134 | [1] -0.109 | barasertib -0.016 | volasertib 0.006 | [3] -0.033 | [4] -0.125 | [5] 0.052 | saracatinib 0.009 | alvocidib 0.034 | Tubastatin A -0.079 | [6] -0.066 | defactinib -0.085 | [7] 0.043 | alisertib 0.18 | [9] -0.11 | gefitinib -0.101

DYNC2H1 isoform 2 (UniProt Q8NCM8)
inactive: vemurafenib -0.049 | [1] 0.005 | barasertib 0.28 | [2] -0.076 | volasertib -0.013 | [3] -0.11 | [4] 0.025 | [5] -0.002 | saracatinib -0.131 | alvocidib -0.023 | Tubastatin A 0.005 | [6] 0.023 | defactinib -0.015 | [7] 0.025 | encorafenib -0.062 | [8] -0.032 | alisertib 0.031 | [9] 0.027 | gefitinib -0.062
